# Assay results from the supplement of paper PMC7238544.
# Structures can show the parent of a compound that is named as a salt. ± gives the standard deviation of the averaged measurements. The list shows a part of the results. The data scatter; read single values as rough.
# Experiments:
# hAMSC donor 1 [1] = test: Hoechst total cell count ratio vs vehicle control; higher = more cells (less toxicity)
# hAMSC donor 2 [2] = test: as above
# hAMSC donor 1 [3] = test: transgenic luciferase activity (RLU/mg protein) fold change vs vehicle control (ratio); higher = more transgene expression
# hAMSC donor 2 [4] = test: as above
# hAMSC donor 1 [5] = test: transfection efficiency (EGFP+ cells / Hoechst count) fold change vs vehicle control (ratio); hAMSC are human adipose-derived mesenchymal stem cells given an EGFP-luciferase plasmid by lipofection; higher = enhanced transfection
# hAMSC donor 2 [6] = test: as above
# [7] = priming compound concentration 0.2 µM
# [8] = priming compound concentration 1.7 µM
# [9] = priming compound concentration 13 µM
Compound,Hoechst total cell count ratio (hAMSC donor 1 [1]; [7]),Hoechst total cell count ratio (hAMSC donor 1 [1]; [8]),Hoechst total cell count ratio (hAMSC donor 1 [1]; [9]),Hoechst total cell count ratio (hAMSC donor 2 [2]; [7]),Hoechst total cell count ratio (hAMSC donor 2 [2]; [8]),Hoechst total cell count ratio (hAMSC donor 2 [2]; [9]),transgenic luciferase activity (hAMSC donor 1 [3]; [8]),transgenic luciferase activity (hAMSC donor 2 [4]; [7]),transgenic luciferase activity (hAMSC donor 2 [4]; [8]),transfection efficiency (hAMSC donor 1 [5]; [7]),transfection efficiency (hAMSC donor 1 [5]; [8]),transfection efficiency (hAMSC donor 1 [5]; [9]),transfection efficiency (hAMSC donor 2 [6]; [7]),transfection efficiency (hAMSC donor 2 [6]; [8]),transfection efficiency (hAMSC donor 2 [6]; [9]),transgenic luciferase activity (hAMSC donor 1 [3]; [7]),transgenic luciferase activity (hAMSC donor 2 [4]; [9]),transgenic luciferase activity (hAMSC donor 1 [3]; [9])
O=C1Nc2ccc(Cl)cc2C(c2ccccc2Cl)=NC1O (configuration not stated) [Lorazepam],1.17 ± 0.026,1.13 ± 0.086,1.36 ± 0.14,1.75 ± 0.15,1.63 ± 0.34,1.51 ± 0.11,1.01 ± 0.23,0.406 ± 0.082,0.667 ± 0.12,0.659 ± 0.24,1.09 ± 0.46,0.647 ± 0.078,0.567 ± 0.038,0.551 ± 0.21,0.722 ± 0.082,–,–,–
CC(C)N(CCC(C(N)=O)(c1ccccc1)c1ccccn1)C(C)C (configuration not stated) [Disopyramide phosphate],0.945 ± 0.05,1.08 ± 0.069,1.47 ± 0.13,1.04 ± 0.17,1.19 ± 0.27,1.04 ± 0.32,0.498 ± 0.17,–,0.725 ± 0.17,1.19 ± 0.19,1.1 ± 0.15,0.924 ± 0.25,0.993 ± 0.26,1.14 ± 0.21,0.975 ± 0.19,0.732 ± 0.098,0.408 ± 0.13,–
C[N+]1(CCC(C(N)=O)(c2ccccc2)c2ccccc2)CCCCC1 [Fenpiverinium bromide],1.34 ± 0.18,1.31 ± 0.059,1.35 ± 0.055,0.771 ± 0.11,1.08 ± 0.099,1.31 ± 0.22,–,0.624 ± 0.16,–,0.999 ± 0.17,1.17 ± 0.31,1.66 ± 0.11,1.61 ± 0.11,1.06 ± 0.13,1 ± 0.13,0.716 ± 0.33,–,–
Cc1nnc2n1-c1ccc(Cl)cc1C(c1ccccc1)=NC2 [Alprazolam],1.41 ± 0.17,1.26 ± 0.11,1.14 ± 0.13,1.2 ± 0.095,1.18 ± 0.071,1.13 ± 0.16,–,–,–,0.932 ± 0.18,1.03 ± 0.31,1.04 ± 0.31,0.893 ± 0.032,0.972 ± 0.1,1.2 ± 0.24,1.1 ± 0.3,–,–
CNC1=Nc2ccc(Cl)cc2C(c2ccccc2)=[N+]([O-])C1 [Chlordiazepoxide],1.09 ± 0.092,1.07 ± 0.25,1.31 ± 0.015,0.817 ± 0.11,0.947 ± 0.2,1.01 ± 0.17,–,–,1.17 ± 0.61,1.36 ± 0.27,0.919 ± 0.25,0.81 ± 0.26,1.11 ± 0.22,1.05 ± 0.12,1.04 ± 0.18,1.24 ± 0.2,–,–
C=CCN1CC[C@]23c4c5ccc(O)c4O[C@H]2C(=O)CC[C@@]3(O)[C@H]1C5 [Naloxone hydrochloride],1.3 ± 0.17,1.36 ± 0.26,1.5 ± 0.043,1.18 ± 0.038,1.11 ± 0.089,1.24 ± 0.12,–,0.88 ± 0.13,–,1 ± 0.32,1.17 ± 0.29,0.995 ± 0.27,1.3 ± 0.12,0.987 ± 0.017,0.927 ± 0.092,–,0.89 ± 0.41,0.604 ± 0.11
